Results taken from PubChem BioAssay AID686992 (Broad Institute, 2013).
The campaign covered roughly 260,000 compounds. About 960 (0.37%) were called active. Listed are the inconclusive results; actives and inactives stand elsewhere.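 Rule for the calls: active = mean E-selectin-positive cell signal at least 10% of the positive control, reached in at least 60% of replicates, without over 20% cell loss; inconclusive = no rule given, readout overlaps actives, possibly toxicity-flagged; inactive = the rest, including those meeting only one limit.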 Some of these compounds have results that are not shown, active ones among them.

By UniProt entry, the sequences of proteins in these tests, tags left out.
UniProt P16581, whole entry: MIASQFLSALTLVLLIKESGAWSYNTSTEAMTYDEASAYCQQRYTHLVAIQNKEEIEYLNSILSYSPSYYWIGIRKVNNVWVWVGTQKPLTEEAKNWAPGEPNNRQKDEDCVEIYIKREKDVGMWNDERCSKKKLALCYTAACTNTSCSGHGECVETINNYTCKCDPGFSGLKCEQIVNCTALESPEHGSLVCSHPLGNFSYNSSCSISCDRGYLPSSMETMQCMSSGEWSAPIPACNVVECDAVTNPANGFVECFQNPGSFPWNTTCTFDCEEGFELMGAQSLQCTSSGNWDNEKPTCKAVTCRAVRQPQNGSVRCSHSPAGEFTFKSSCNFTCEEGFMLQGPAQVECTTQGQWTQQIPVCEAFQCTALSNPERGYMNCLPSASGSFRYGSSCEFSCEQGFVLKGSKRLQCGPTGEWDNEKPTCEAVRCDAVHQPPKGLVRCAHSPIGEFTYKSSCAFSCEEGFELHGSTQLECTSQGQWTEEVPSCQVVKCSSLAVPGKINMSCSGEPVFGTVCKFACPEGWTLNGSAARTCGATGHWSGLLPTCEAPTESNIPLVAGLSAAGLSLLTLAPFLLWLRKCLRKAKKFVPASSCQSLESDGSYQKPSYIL

target: E-selectin (Homo sapiens) (UniProt P16581); experiment: E-selectin induction in HUVECs, primary screen, imaging, HUVEC, immunofluorescence imaging, single point (AID 686992); settings: at 7.58 µM, stronger effect = higher value, normalized: neutral wells 0, TNF-alpha wells 100;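 note: signal is the percent of cells scored E-selectin positive by PE staining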
How it was run: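 material = human umbilical vein endothelial cells (HUVEC), E-selectin induction | quantity = 3,000 cells/well | medium = EGM-2 growth medium on 0.1% gelatin-coated wells | technique = immunofluorescence imaging | read-out basis = % PE-positive cells | control set = TNF-alpha positive control, DMSO neutral control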

| SMILES | activation |
| --- | --- |
| COc1ccc(C(=O)NCC2(N(C)C)CCCCC2)cc1 | inconclusive: 33.3% |
